## Percent effect of library compounds

Values are the deposited “Percent Effect”, in %. The record does not define 0% and 100%; most values in the screen are far below 50% and negative numbers occur (in some assays of this library far below -100). Compounds were drawn at random from those tested, without regard to their results. Two or more numbers in one place are separate tests of the same structure; such repeats can differ widely.

A: 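Whole-cell growth test on Mycobacterium tuberculosis, read after 4 days in a medium based on cholesterol and the lipid DPPC; the read-out is not stated. Tested at 50 µM. The record gives no direction; compounds that gave an IC50 in retests scored well above the rest, so higher reads as more growth inhibition. Size under these conditions: about 69,000 compounds, about 370 of them at 50% or above in at least one test.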
B: 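Phenotypic screen: M. tuberculosis growth, glucose 7H9 medium, 3 days; the read-out is not stated. Compounds at 50 µM. The record gives no direction; compounds that gave an IC50 in retests scored well above the rest, so higher reads as more growth inhibition. About 69,000 compounds were tested under these conditions; 1.1% (about 760) showed 50% or more at least once.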

Compound: OCC1(CC2CC2)CCCN(Cc2cnc(C3CCCCC3)nc2)C1 (stereo not shown)
A: -4.915
B: -18.64

Compound: O=C(O)C(F)(F)F.[H][C@@]12CCN(Cc3ccco3)C[C@@]1([H])[C@H](C(=O)NCC1CC1)CCO2
A: 13.03
B: -2.636

Compound: [H][C@]12CC[C@]([H])(CN(c3ncccn3)C1)N(C(=O)c1ccccc1C#N)C2
A: -23.91 and -7.184
B: -26.53

Compound: Cc1cnn(Cc2ccc(NC(=O)N3CCCC3)cc2)c1
A: 4.245
B: 2.539

Compound: Cc1cnc(C(=O)N2CCC3(CC2)CC(c2ccncc2)C(=O)N3)cn1 (stereo not shown)
A: -0.5081
B: 13.31 and 1.981

Compound: Cc1ccc(NC(=O)c2ccc(CC3CC(=O)NC3=O)cc2)cc1O (stereo not shown)
A: -3.354 and -0.6315
B: 4.295

Compound: CCNc1ncc2c(n1)CN(c1cccc(OC)c1)C2=O
A: -6.128
B: 20.3

Compound: Cc1cc(CN2CCN(C(C)C(=O)NCc3cccs3)CC2)no1 (stereo not shown)
A: -5.462
B: 5.877 and -0.2026

Compound: Cc1noc(NCc2cn(C)nc2-c2ccncc2)n1
A: 11.54
B: 19.05

Compound: CC(C)c1nn(C)c(N(C)C)c1CNC1CCCOc2ccccc21 (stereo not shown)
A: -48.18
B: -1.497

Compound: Cc1nncn1CCNC(=O)C(C)(C)c1cccc(C(F)(F)F)c1
A: 6.814
B: 17.49

Compound: Cn1cc(C(=O)OC2CN(c3nc4c(C(F)(F)F)cccc4s3)C2)nn1
A: -6.328
B: 9.311

Compound: Cc1nc(N(C)C)ncc1C(=O)N(Cc1ccncc1)CC1CCCO1 (stereo not shown)
A: -1.551
B: 1.947 and -11.61

Compound: [H][C@]12CC[C@]([H])(CN(Cc3noc(C4CCCC4)n3)C1)N(CC1CCC1)C2
A: 28.21
B: -22.55

Compound: O=C1Nc2ccccc2CN(C/C=C/c2ccccc2)C12CCNC2 (stereo not shown)
A: 19.27
B: 56.39

Compound: Cc1ccc2cc(C3(O)CCN(C(=O)[C@@H]4CCCCN4)CC3)ccc2n1
A: -22.12
B: -22.94

Compound: CC(C)(C)c1n[nH]c(C2CN(CC3CCC3)CCO2)n1 (stereo not shown)
A: -9.947
B: -0.1343

Compound: Cc1ccc(F)cc1NC(=O)NCC(C)N1CCOCC1 (stereo not shown)
A: 4.31 and -29.13
B: 5.011

Compound: CCC(CC#N)n1ccc(C(F)(F)F)n1 (stereo not shown)
A: 0.1979
B: -5.1

Compound: Cc1cc(C)n(CC(=O)N2CCC(NS(C)(=O)=O)CC2)n1
A: -7.777
B: -24.87

Compound: CCc1ccc(C(COC)NC(=O)c2ccsc2)o1 (stereo not shown)
A: 0.3084
B: 24.02

Compound: CO[C@@H]1CN(c2ccccc2)S(=O)(=O)[C@@]12CCN(Cc1cncs1)C2
A: -7.151
B: -11.47

Compound: COCc1cncc2c1CCN(C(=O)c1ccc(C)o1)C2
A: 7.585
B: 4.866

Compound: CC(C)(C)C(=O)N1CCC(n2cc(C3(O)CCCC3)nn2)CC1
A: -3.659
B: 13.13

Compound: [H][C@@]12OCCN(C(=O)COc3ccccc3)[C@@]1([H])CC[C@@H]2OCC
A: 16.06
B: 22.26

Compound: Cc1ccc(CN2CCOC(c3cnccn3)C2)s1 (stereo not shown)
A: 6.927 and 12.23
B: -21.4

Compound: CN(C)C(CNS(=O)(=O)c1ccc(F)cc1F)c1cccn1C (stereo not shown)
A: -16.42
B: -0.7312 and -14.01

Compound: CCCN(C(=O)CN1CCN(CC(C)O)CC1)C1=CCCCC1 (stereo not shown)
A: -15.68
B: -15.44

Compound: CC(C)(C)NC(=O)CNC(=O)Nc1cc(-c2ccccc2)ns1
A: 3.485
B: 23.79

Repeated from the top, 4 entries:

Compound	A	B
OCC1(CC2CC2)CCCN(Cc2cnc(C3CCCCC3)nc2)C1 (stereo not shown)	-4.915	-18.64
O=C(O)C(F)(F)F.[H][C@@]12CCN(Cc3ccco3)C[C@@]1([H])[C@H](C(=O)NCC1CC1)CCO2	13.03	-2.636
[H][C@]12CC[C@]([H])(CN(c3ncccn3)C1)N(C(=O)c1ccccc1C#N)C2	-23.91 and -7.184	-26.53
Cc1cnn(Cc2ccc(NC(=O)N3CCCC3)cc2)c1	4.245	2.539

From ChEMBL document CHEMBL3988442, “University of Dundee, Small-Polar-MMV Screening Library” (2021).